{"sequences": {"note": "Sequences of proteins named here, by UniProt entry; tags and fusion partners are left off. A change or cut given only in a name is not applied to a line headed by its entry.", "UniProt P25694": "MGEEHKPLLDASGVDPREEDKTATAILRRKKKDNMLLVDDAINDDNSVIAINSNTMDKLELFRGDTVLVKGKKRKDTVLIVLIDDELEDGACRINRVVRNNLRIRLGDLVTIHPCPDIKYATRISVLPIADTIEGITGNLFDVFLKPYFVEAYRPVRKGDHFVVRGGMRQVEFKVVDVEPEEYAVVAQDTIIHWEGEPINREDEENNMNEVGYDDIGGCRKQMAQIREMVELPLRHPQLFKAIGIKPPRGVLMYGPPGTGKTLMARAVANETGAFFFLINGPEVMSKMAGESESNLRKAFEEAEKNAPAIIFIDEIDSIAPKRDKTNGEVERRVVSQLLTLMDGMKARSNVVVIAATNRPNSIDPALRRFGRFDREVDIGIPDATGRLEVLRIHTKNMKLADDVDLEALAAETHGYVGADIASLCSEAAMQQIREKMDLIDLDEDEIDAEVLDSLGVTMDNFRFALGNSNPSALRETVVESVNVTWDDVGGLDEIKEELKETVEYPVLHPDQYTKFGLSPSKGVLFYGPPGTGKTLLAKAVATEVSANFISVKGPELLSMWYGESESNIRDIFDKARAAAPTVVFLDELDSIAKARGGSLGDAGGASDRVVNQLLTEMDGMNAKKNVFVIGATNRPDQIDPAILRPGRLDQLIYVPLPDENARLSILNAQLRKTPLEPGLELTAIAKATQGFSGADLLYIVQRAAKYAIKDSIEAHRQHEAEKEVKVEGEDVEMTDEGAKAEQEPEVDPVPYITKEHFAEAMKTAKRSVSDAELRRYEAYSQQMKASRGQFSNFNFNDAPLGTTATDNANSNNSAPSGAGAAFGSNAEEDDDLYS", "UniProt Q12532": "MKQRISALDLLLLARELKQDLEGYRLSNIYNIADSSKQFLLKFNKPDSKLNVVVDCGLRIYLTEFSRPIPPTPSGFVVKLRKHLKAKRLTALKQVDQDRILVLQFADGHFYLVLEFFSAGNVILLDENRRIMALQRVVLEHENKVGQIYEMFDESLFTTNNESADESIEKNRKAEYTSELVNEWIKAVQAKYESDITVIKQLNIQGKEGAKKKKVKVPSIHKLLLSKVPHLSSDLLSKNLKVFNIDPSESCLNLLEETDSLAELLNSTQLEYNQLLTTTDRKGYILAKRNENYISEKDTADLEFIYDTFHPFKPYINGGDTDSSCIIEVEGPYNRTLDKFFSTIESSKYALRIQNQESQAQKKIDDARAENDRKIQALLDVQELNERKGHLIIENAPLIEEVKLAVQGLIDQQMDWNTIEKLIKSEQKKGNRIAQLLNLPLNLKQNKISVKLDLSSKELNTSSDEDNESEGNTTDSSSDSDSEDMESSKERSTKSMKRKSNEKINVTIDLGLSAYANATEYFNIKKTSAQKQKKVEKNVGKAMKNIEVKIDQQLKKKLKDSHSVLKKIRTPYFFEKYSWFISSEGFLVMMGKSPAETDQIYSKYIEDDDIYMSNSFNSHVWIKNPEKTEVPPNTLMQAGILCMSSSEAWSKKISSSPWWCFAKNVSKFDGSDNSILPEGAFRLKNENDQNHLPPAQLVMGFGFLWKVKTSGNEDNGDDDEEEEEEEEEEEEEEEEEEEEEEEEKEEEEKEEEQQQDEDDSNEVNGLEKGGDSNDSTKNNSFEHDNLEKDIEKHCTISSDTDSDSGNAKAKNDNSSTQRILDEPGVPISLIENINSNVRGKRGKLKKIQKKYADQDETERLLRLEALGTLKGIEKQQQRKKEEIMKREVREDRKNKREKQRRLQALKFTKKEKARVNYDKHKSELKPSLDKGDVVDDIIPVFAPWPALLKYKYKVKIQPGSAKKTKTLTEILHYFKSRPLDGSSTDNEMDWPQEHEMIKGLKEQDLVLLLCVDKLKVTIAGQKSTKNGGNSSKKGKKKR"}, "source": "paper doi:10.1101/733709", "target": "FLAG-tagged Cdc48-C115S (S. cerevisiae) (UniProt P25694)", "test": "affinity purification with mass spectrometry", "note": "Results are given in words; binding and its absence hold for the method and conditions named. Binding seen in cells or lysates may run through a third protein. A yes stands for co-enrichment or nearness to the bait. Other partners may have been found.", "data": [{"substance": "Rqc2 (from UniProt Q12532 1-1038)", "values": [{"measurement": "binding", "result": "binds"}]}]}
